Measurements as given in the supplement of paper PMC10849652.
The other results are listed elsewhere or left out.

Chains of the proteins cited; added tags and fusions are not shown. Lines headed by an entry give the natural chain unless they say otherwise; changes in a name come on top.
UniProt P09497: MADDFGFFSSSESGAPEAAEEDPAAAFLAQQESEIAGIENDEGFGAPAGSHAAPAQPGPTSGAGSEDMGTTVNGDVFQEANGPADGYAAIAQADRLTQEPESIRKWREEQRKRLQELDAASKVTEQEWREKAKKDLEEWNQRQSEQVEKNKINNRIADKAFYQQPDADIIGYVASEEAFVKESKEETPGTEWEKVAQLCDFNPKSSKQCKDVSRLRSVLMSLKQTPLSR
UniProt Q9Y4C5: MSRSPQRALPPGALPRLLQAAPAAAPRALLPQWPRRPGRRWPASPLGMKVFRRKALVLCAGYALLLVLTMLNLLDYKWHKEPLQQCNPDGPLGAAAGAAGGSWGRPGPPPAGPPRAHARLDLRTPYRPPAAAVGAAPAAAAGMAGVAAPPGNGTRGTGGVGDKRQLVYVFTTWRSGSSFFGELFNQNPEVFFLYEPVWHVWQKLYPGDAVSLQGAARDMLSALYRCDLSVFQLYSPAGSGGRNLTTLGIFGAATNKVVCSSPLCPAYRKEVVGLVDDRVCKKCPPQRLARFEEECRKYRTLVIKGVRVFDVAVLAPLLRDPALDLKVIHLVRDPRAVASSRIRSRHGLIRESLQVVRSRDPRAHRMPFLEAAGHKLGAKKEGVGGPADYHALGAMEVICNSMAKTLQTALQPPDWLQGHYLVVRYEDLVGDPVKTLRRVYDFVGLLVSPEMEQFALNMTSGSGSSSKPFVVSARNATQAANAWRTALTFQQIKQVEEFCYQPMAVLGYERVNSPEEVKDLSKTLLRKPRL
UniProt Q8IZ52: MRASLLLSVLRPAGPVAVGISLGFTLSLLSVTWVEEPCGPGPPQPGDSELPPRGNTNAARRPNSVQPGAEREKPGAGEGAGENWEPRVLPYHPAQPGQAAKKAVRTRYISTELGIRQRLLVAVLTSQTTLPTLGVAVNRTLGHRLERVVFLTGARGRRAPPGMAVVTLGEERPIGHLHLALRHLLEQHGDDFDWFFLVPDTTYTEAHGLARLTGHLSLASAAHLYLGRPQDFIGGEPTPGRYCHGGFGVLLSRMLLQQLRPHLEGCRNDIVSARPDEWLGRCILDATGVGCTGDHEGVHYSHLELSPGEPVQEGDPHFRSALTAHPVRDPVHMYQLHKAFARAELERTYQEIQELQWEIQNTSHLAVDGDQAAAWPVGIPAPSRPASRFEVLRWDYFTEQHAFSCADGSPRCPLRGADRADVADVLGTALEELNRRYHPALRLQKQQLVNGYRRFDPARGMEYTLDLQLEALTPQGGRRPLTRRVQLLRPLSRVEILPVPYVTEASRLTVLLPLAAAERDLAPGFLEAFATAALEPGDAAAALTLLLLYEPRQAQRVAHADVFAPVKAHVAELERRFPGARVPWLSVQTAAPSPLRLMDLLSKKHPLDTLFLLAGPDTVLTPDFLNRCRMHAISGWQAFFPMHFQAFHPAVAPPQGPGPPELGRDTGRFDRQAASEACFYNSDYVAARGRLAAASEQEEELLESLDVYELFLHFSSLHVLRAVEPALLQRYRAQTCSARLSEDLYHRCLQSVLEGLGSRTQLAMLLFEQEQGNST
UniProt Q8N3C7: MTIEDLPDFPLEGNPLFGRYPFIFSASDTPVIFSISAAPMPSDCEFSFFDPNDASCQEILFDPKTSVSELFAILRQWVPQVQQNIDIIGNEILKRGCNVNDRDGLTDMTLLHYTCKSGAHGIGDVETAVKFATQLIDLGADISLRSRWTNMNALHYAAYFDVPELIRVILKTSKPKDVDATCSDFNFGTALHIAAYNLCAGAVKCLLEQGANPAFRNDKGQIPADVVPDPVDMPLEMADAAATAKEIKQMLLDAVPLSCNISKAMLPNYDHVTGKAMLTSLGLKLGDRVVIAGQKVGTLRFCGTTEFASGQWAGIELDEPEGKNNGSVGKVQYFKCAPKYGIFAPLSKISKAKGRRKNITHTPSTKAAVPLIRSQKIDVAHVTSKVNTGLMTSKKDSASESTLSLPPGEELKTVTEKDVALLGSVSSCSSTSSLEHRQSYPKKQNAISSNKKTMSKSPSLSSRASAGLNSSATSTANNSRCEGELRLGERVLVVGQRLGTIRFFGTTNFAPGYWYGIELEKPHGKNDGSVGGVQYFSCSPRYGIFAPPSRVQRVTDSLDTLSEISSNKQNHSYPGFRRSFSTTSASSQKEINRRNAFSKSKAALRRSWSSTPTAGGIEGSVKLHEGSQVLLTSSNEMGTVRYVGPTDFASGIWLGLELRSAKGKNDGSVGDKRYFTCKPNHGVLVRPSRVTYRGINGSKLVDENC
UniProt Q9NY35: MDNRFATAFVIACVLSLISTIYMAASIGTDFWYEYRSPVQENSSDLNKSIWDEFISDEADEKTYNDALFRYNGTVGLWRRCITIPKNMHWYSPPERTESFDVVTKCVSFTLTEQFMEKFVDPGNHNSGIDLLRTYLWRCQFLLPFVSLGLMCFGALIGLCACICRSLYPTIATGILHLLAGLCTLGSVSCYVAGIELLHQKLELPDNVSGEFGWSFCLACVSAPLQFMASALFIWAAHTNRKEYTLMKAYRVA
UniProt O75153: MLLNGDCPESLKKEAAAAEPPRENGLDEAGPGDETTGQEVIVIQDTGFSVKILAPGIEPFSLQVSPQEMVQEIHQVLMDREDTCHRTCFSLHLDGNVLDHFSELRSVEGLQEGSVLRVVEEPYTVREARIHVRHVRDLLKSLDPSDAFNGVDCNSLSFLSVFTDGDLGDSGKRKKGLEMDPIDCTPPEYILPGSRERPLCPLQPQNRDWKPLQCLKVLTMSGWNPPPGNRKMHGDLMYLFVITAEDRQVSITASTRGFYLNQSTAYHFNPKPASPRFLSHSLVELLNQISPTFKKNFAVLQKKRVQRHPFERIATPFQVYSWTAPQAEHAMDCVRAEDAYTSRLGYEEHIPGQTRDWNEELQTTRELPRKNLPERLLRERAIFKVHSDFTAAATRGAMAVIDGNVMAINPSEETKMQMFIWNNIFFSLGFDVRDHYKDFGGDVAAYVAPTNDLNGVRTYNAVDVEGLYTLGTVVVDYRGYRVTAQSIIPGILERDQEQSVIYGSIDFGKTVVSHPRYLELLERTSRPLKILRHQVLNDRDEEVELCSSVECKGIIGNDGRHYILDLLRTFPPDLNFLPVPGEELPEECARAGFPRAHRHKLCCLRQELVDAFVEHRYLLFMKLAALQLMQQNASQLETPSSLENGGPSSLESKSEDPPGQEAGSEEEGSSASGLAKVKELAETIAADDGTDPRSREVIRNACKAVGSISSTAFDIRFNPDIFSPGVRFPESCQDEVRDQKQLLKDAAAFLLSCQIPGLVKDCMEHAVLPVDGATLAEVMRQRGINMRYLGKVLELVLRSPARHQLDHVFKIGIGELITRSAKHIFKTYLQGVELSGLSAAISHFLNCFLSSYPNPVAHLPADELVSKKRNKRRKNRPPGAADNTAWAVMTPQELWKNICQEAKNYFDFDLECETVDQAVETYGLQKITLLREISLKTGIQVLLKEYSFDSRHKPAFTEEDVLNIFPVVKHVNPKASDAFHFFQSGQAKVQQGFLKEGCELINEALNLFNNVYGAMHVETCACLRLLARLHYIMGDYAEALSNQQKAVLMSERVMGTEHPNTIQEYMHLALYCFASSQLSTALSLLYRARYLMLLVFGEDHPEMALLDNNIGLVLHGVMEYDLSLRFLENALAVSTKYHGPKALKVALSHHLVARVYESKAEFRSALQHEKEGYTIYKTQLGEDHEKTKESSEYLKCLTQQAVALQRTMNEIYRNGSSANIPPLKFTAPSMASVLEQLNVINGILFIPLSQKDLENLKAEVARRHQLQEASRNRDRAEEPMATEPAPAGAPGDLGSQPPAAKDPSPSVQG
UniProt O15247: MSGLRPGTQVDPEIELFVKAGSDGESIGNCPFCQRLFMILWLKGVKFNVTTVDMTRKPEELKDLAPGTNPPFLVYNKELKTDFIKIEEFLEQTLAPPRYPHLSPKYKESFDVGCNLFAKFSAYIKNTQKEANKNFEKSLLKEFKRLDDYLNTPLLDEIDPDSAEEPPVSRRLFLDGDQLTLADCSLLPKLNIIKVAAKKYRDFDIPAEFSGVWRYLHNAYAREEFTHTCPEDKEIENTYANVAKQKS
UniProt Q9H078: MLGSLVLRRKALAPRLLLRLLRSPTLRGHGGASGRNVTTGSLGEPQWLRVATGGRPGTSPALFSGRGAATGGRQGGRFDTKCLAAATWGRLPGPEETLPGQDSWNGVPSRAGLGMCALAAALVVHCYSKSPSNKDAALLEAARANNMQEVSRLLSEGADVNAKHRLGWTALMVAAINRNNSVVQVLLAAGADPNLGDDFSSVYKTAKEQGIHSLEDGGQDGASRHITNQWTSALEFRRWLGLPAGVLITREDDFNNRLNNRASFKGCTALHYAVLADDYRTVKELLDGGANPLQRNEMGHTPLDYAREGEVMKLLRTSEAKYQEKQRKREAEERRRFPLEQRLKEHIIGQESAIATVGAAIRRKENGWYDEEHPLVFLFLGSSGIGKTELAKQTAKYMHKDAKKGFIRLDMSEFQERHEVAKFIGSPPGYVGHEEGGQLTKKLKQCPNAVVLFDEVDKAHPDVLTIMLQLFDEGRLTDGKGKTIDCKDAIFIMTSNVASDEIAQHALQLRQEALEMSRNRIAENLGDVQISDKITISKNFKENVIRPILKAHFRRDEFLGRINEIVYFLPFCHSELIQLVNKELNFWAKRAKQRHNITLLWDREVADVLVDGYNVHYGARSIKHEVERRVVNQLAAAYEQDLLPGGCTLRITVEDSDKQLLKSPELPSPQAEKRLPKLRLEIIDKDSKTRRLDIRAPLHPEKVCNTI
UniProt Q9Y696: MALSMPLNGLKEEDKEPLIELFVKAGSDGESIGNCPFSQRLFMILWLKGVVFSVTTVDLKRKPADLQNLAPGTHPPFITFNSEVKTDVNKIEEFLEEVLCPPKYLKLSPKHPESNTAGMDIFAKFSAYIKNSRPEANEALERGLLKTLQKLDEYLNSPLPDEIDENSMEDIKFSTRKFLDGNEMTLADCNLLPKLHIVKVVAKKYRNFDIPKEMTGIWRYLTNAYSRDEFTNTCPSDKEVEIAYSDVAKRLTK
UniProt Q9HAW4: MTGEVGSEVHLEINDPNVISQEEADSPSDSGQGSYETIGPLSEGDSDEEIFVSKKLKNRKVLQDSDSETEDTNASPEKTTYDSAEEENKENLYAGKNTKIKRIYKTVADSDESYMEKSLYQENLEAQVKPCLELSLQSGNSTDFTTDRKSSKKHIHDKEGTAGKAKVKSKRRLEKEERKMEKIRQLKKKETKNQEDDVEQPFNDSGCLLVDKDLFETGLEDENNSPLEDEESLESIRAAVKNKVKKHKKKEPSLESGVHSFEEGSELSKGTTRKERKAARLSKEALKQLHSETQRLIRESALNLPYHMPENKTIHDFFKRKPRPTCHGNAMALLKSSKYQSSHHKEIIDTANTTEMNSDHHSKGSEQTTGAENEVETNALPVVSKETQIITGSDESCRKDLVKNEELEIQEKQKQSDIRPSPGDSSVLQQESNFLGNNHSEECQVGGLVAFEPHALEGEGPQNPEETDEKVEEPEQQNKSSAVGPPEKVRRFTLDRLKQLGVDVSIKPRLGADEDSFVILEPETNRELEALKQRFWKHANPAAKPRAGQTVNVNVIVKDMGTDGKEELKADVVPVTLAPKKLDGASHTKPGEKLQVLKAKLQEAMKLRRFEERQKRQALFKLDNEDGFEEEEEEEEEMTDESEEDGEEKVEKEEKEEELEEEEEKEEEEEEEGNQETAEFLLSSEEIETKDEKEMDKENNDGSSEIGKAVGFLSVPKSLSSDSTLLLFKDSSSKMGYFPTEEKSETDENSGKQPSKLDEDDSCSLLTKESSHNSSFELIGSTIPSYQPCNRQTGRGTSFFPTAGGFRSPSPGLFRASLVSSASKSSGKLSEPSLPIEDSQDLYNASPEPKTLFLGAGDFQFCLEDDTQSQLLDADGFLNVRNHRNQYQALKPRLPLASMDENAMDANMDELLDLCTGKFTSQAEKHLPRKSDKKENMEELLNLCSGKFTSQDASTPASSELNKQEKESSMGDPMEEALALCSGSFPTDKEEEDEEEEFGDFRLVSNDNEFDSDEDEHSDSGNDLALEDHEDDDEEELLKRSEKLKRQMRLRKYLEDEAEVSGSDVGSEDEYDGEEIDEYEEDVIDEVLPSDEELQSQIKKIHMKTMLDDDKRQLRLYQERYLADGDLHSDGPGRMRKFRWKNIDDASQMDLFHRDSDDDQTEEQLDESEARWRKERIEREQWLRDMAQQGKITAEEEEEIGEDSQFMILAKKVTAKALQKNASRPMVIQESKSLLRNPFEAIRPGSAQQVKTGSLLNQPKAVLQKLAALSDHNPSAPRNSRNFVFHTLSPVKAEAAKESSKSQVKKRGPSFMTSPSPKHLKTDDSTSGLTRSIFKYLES
UniProt P09496: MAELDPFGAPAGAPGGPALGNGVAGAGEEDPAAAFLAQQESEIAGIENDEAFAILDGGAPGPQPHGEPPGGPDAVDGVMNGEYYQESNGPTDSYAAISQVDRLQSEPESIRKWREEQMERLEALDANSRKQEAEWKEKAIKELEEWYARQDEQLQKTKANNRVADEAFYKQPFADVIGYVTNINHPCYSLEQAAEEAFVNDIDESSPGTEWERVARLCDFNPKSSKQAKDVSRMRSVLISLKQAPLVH

Experiments:
Experiment in all cases: log2 fold change, soluble protein after heating vs DMSO (PISA); higher = thermal stabilisation; K562 cells, 10 uM, 30 min; active = over 0.2 and 3.5 SD of the protein, either way, in both replicates (recomputed)
[1] = compound: COC1=CC=C(C=C1)CN2C=CC3=C2C=C(C=C3)C(=O)NO
Summary of the method: (§1)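 K562 cells at 2×10^6 cells/mL were exposed to 10 μM compound for 30 min, then aliquots were heated for 3 min across 48°C-58°C, pooled, and extracted in PBS containing 0.5% NP-40 at 4°C. The supernatant after 21,000xg for 90 min was taken as soluble protein and measured by TMTpro 16plex LC-MS/MS with channel sums equalised. Thermal stability is reported relative to control samples, with values from duplicates. Fold changes are given on a log2 scale.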

[2] = compound: CON(C)C(=O)N1N=C(c2cc(F)ccc2F)S[C@@]1(CCCN)c1ccccc1 [filanesib]
Summary of the method: as §1

[3] = compound: CO[C@H]1C[C@@H]2CC[C@@H](C)[C@@](O)(O2)C(=O)C(=O)N2CCCC[C@H]2C(=O)O[C@H]([C@H](C)C[C@@H]2CC[C@H](n3cnnn3)[C@H](OC)C2)CC(=O)[C@H](C)/C=C(\C)[C@@H](O)[C@@H](OC)C(=O)[C@H](C)C[C@H](C)/C=C/C=C/C=C/1C [zotarolimus]
Summary of the method: as §1

[4] = compound: COc1cc(C(=O)O)ccc1NC(=O)[C@@H]1N[C@@H](CC(C)(C)C)[C@](C#N)(c2ccc(Cl)cc2F)[C@H]1c1cccc(Cl)c1F [idasanutlin]
Summary of the method: as §1

[5] = compound: COc1cc(Nc2ncc3c(n2)-c2ccc(Cl)cc2C(c2c(F)cccc2OC)=NC3)ccc1C(=O)O [alisertib]
Summary of the method: as §1

[6] = compound: COc1cc2nc(-c3cc(F)ccc3O)nc(N[C@@H]3CNC[C@H]3C(C)(C)O)c2cc1OC
Summary of the method: as §1

[7] = compound: COc1cc2ncnc(Nc3ccc(F)c(Cl)c3)c2cc1OCCCN1CCOCC1 [gefitinib]
Summary of the method: as §1

[8] = compound: COc1cccc2cc(-c3nc([C@H]4CC[C@H](C(=O)O)CC4)n4ncnc(N)c34)[nH]c12
Summary of the method: as §1

[9] = compound: CS(=O)(=O)CCNCc1ccc(-c2ccc3ncnc(Nc4ccc(OCc5cccc(F)c5)c(Cl)c4)c3c2)o1 [lapatinib]
Summary of the method: as §1

Target | log2 fold change [1] | log2 fold change [2] | log2 fold change [3] | log2 fold change [4] | log2 fold change [5] | log2 fold change [6] | log2 fold change [7] | log2 fold change [8] | log2 fold change [9]
CLTB (UniProt P09497) | active: 0.263 | inactive: -0.053 | inactive: -0.006 | inactive: -0.02 | inactive: -0.106 | inactive: 0 | inactive: 0.017 | inactive: 0.028 | inactive: -0.014
CHST2 (UniProt Q9Y4C5) | inactive: 0.017 | inactive: 0.234 | inactive: -0.042 | inactive: -0.162 | inactive: -0.061 | inactive: 0.076 | inactive: 0.143 | inactive: -0.129 | inactive: 0.078
CLN5 (UniProt O75503) | inactive: 0.021 | inactive: -0.385 | inactive: 0.075 | inactive: 0.049 | inactive: 0.265 | inactive: -0.65 | inactive: -0.341 | inactive: 0.27 | inactive: -0.028
CLTC (UniProt Q00610) | inactive: 0.016 | inactive: -0.051 | inactive: -0.009 | inactive: -0.13 | inactive: -0.082 | inactive: 0.059 | inactive: 0.068 | inactive: -0.053 | inactive: 0.045
CLCN6 isoform 5 (UniProt P51797) | inactive: 0.101 | inactive: -0.074 | inactive: -0.116 | inactive: -0.017 | inactive: -0.169 | inactive: -0.002 | inactive: -0.071 | inactive: 0.096 | inactive: -0.068
CLPTM1 (UniProt O96005) | inactive: 0.052 | inactive: -0.094 | inactive: 0.041 | inactive: -0.061 | inactive: -0.05 | inactive: -0.109 | inactive: 0.014 | inactive: -0.02 | inactive: 0.046
CHPF (UniProt Q8IZ52) | inactive: -0.096 | inactive: -0.04 | inactive: -0.01 | inactive: 0.304 | inactive: -0.077 | inactive: -0.132 | inactive: 0.161 | inactive: -0.025 | inactive: 0.066
CLIC1 (UniProt O00299) | inactive: -0.014 | inactive: -0.029 | inactive: 0.037 | inactive: -0.006 | inactive: -0.069 | inactive: 0.005 | inactive: -0.013 | inactive: -0.011 | inactive: -0.018
CLCC1 (UniProt Q96S66) | inactive: -0.041 | inactive: -0.075 | inactive: -0.022 | inactive: -0.033 | inactive: 0 | inactive: -0.002 | inactive: -0.021 | inactive: 0.083 | inactive: -0.034
CLCN3 isoform 2 (UniProt P51790) | inactive: 0.057 | inactive: -0.151 | inactive: -0.031 | inactive: -0.008 | inactive: 0.03 | inactive: -0.064 | inactive: -0.015 | inactive: 0.04 | inactive: 0.008
COG5 isoform 2 (UniProt Q9UP83) | inactive: 0.051 | – | – | – | – | – | – | – | –
CLIP4 (UniProt Q8N3C7) | inactive: 0.022 | inactive: -0.103 | inactive: -0.018 | inactive: 0.045 | inactive: 0.269 | inactive: 0.005 | inactive: 0.013 | inactive: -0.194 | inactive: -0.166
CLNS1A (UniProt P54105) | inactive: 0.055 | inactive: -0.036 | inactive: 0.019 | inactive: 0.028 | inactive: -0.084 | inactive: 0.016 | inactive: 0.023 | inactive: -0.013 | inactive: -0.005
CLDND1 (UniProt Q9NY35) | inactive: 0.047 | inactive: 0.079 | inactive: -0.166 | inactive: 0.041 | inactive: 0.031 | inactive: 0.021 | inactive: 0.056 | inactive: 0.01 | inactive: 0.006
CLINT1 isoform 3 (UniProt Q14677) | inactive: -0.159 | inactive: 0.155 | inactive: -0.031 | inactive: 0 | inactive: -0.105 | inactive: 0.074 | inactive: 0.148 | inactive: -0.041 | inactive: 0.014
CLGN (UniProt O14967) | inactive: 0.018 | inactive: 0.141 | inactive: -0.057 | inactive: -0.016 | inactive: -0.007 | inactive: 0.001 | inactive: -0.047 | inactive: -0.056 | inactive: -0.079
CLUH (UniProt O75153) | inactive: -0.026 | inactive: 0.07 | inactive: 0.028 | inactive: -0.074 | inactive: -0.072 | inactive: -0.022 | inactive: -0.001 | inactive: -0.152 | inactive: 0.006
CLASP2 isoform 3 (UniProt O75122) | inactive: 0.021 | inactive: 0.068 | inactive: 0.033 | inactive: -0.024 | inactive: -0.021 | inactive: 0.055 | inactive: -0.002 | inactive: 0.003 | inactive: -0.009
CLCN3 (UniProt P51790) | inactive: -0.158 | inactive: -0.12 | inactive: -0.099 | inactive: -0.095 | inactive: -0.016 | inactive: 0.031 | inactive: 0.045 | inactive: 0.058 | inactive: -0.06
CLIC2 (UniProt O15247) | inactive: 0.072 | inactive: -0.02 | inactive: 0.092 | inactive: 0.026 | inactive: -0.057 | inactive: 0.027 | inactive: 0.032 | inactive: -0.076 | inactive: -0.025
CLPB isoform 2 (UniProt Q9H078) | inactive: -0.036 | inactive: -0.038 | inactive: -0.021 | inactive: -0.041 | inactive: -0.053 | inactive: -0.138 | inactive: -0.017 | inactive: 0.021 | inactive: 0.038
CLEC16A (UniProt Q2KHT3) | inactive: -0.011 | inactive: 0.091 | inactive: -0.027 | inactive: -0.001 | inactive: -0.092 | inactive: 0.003 | inactive: -0.029 | inactive: 0.005 | inactive: -0.012
CLCN7 (UniProt P51798) | inactive: 0.112 | active: -0.294 | inactive: 0.008 | inactive: -0.006 | inactive: -0.084 | inactive: -0.077 | inactive: -0.144 | inactive: 0.023 | inactive: -0.011
CNIH4 (UniProt Q9P003) | inactive: 0.175 | inactive: 0 | inactive: -0.034 | inactive: -0.16 | inactive: -0.016 | inactive: 0.066 | inactive: 0.054 | inactive: -0.043 | inactive: -0.051
CLPP (UniProt Q16740) | inactive: -0.03 | inactive: -0.017 | inactive: 0 | inactive: -0.038 | inactive: -0.091 | inactive: 0.011 | inactive: 0.01 | inactive: 0.021 | inactive: -0.034
CLIC4 (UniProt Q9Y696) | inactive: 0.005 | inactive: -0.017 | inactive: -0.002 | inactive: -0.013 | inactive: -0.034 | inactive: 0.038 | inactive: 0.016 | inactive: 0.061 | inactive: -0.015
CLPX (UniProt O76031) | inactive: 0.077 | inactive: -0.07 | inactive: -0.052 | inactive: -0.007 | inactive: -0.026 | inactive: -0.017 | inactive: 0.019 | inactive: 0.021 | inactive: 0.014
CLPTM1L (UniProt Q96KA5) | inactive: -0.053 | inactive: -0.114 | inactive: -0.095 | inactive: -0.141 | inactive: -0.032 | inactive: -0.08 | inactive: -0.007 | inactive: 0.065 | inactive: -0.02
CLSPN (UniProt Q9HAW4) | inactive: -0.076 | inactive: 0.053 | inactive: -0.034 | inactive: 0.107 | inactive: 0.004 | inactive: -0.111 | inactive: -0.019 | inactive: -0.018 | inactive: 0.053
CLTA isoform 2 (UniProt P09496) | inactive: -0.041 | inactive: -0.01 | inactive: -0.048 | inactive: 0 | inactive: -0.079 | inactive: -0.008 | inactive: -0.02 | inactive: -0.004 | inactive: 0.008

Whole records, quoted from the list. Order of values: log2 fold change [1]	log2 fold change [2]	log2 fold change [3]	log2 fold change [4]	log2 fold change [5]	log2 fold change [6]	log2 fold change [7]	log2 fold change [8]	log2 fold change [9]
CLPB isoform 2 (UniProt Q9H078) is listed as inactive: -0.036	inactive: -0.038	inactive: -0.021	inactive: -0.041	inactive: -0.053	inactive: -0.138	inactive: -0.017	inactive: 0.021	inactive: 0.038
CHST2 (UniProt Q9Y4C5) is listed as inactive: 0.017	inactive: 0.234	inactive: -0.042	inactive: -0.162	inactive: -0.061	inactive: 0.076	inactive: 0.143	inactive: -0.129	inactive: 0.078
